In brackets after ≈: the same amount, converted by molar mass.
Tested on: Staphylococcus aureus ATCC 6538P
Test: MIC, broth microdilution
Format: cell-based
Conditions: ATCC6538P
Protocol: MIC (Minimum Inhibitory Concentration) analyses were performed on Gram-positive and Gram-negative bacteria by a broth microdilution method previously described, with minor modifications. In details, assays were carried out in Nutrient Broth 0.5× (Difco, Detroit, MI, USA) using sterile 96-well polypropylene microtiter plates (cat. 3879, Costar Corp., Cambridge, MA, USA). Bacterial strains were grown in Luria–Bertani (LB) medium overnight at 37 °C and then diluted in nutrient broth at a final concentration of ~ 5 × 10^5 CFU/mL per well. […] Peptide concentrations were determined by spectrophotometric analysis using the extinction coefficients calculated by the ProtParam tool (http://web.expasy.org/protparam/). Twofold serial dilutions of peptides were carried out in the test wells (0.2–100 μM concentration range). Plates were incubated overnight at 37 °C. MIC value was taken as the lowest concentration at which growth was inhibited. Three independent experiments were performed for each MIC value. […] MIC values were measured on: Pseudomonas aeruginosa PAO1, Acinetobacter baumanii ATCC 17878, Escherichia coli ATCC 25922, Salmonella typhimurium ATCC 14028, Salmonella enteritidis 706 RIVM (kindly provided by Prof. E. Veldhuizen, Utrecht University, Holland), Staphylococcus aureus ATCC 6538P, and Enterococcus faecalis ATCC 29212.

CN[C@H](CC(C)C)C(=O)N[C@H]1C(=O)N[C@@H](CC(N)=O)C(=O)N[C@H]2C(=O)N[C@H]3C(=O)N[C@H](C(=O)N[C@H](C(=O)O)c4cc(O)cc(O)c4-c4cc3ccc4O)[C@H](O)c3ccc(c(Cl)c3)Oc3cc2cc(c3O[C@@H]2O[C@H](CO)[C@@H](O)[C@H](O)[C@H]2O[C@H]2C[C@](C)(N)[C@H](O)[C@H](C)O2)Oc2ccc(cc2Cl)[C@H]1O [Vancomycin, vancomycin]
MIC: 0.5 µg/mL (≈ 0.345 µM)

From PMC8038955, “Antimicrobial D-amino acid oxidase-derived peptides specify gut microbiota” (Cellular and Molecular Life Sciences: CMLS, 2021)
